Most values lie at the floor of the assay. Slopes are relative: functional sequences can read slightly below zero.
system: Saccharomyces cerevisiae PS128 hsf1 delta, HSF1(1-493) fusion; assay: growth estimate (transactivation domain function in HSF1 fusion, heat-shock survival) (a.u. (slope of normalised read count over time)); higher = stronger growth at 37°C, i.e. more transactivation activity; settings: library: random library

Substance | growth estimate
TWSCFLLLCGLGDVSMTTHP | < -0.25
PSYARQSS | < -0.25
ANIVSDSLVSSSPSNTILSD | < -0.25
MYQTGES | < -0.25
ISIAGPARGSYRLPPA | < -0.25
FSSVY | < -0.25
RGQTLATSIFFV | < -0.25
SSKLWNLHRLTAKGVALSFL | < -0.25
RSEGSQMQPRGV | < -0.25
AGSGN | < -0.25
IGGTRLTIVGLSFV | < -0.25
GQIFTRFMVFDRTVGWQDNS | < -0.25
WDVRGAKRQHSSGVFLAREV | 0.0474
FRIRVKSYGNWYSLLILLFV | < -0.25
IGHLQPISARARSGLPAVRR | < -0.25
VAVAPEFYAGSRSLGPARCK | < -0.25
VLNS | < -0.25
HLRPPIQDGGI | < -0.25
WAHCDTLRLVYIIIQARGIV | < -0.25
EHLLMPFVGRELSKILLKCP | < -0.25
CTKKSWGL | < -0.25
DKGIRCALKSSFNRAGRSCH | < -0.25
LHAYHPTLKYGEPQWAPESN | < -0.25
VRISLPLSRRCEQWSVNQKS | < -0.25
RLTNVLWSNPNLIVLRIL | < -0.25

Substance | growth estimate
YNEVREYYLHRLNFLKVRVY | -0.245
CRSSICILLHIDTHLAPLIL | < -0.25
PAGSATTESPQNLGYYDCRR | < -0.25
CDFYV | < -0.25
RRFTDV | < -0.25
PSAD | < -0.25
QVFHRPTLNDVRVDAPTLSV | < -0.25
ISCVQSLPRLRVGSVLVYGE | < -0.25
TNDVAYHESARTAQEPDIQ | < -0.25
RSGVGPYDRKTGWQRNRDPT | < -0.25
GIMQFSGGAPLGIPHT | < -0.25
TERGSALHLPSAP | < -0.25
PPTGSRGYKRI | < -0.25
CYPN | < -0.25
GDTGLGMQLL | < -0.25
QRDVMSRGNERKS | < -0.25
TSASTARCGWIVTRSCHRGG | < -0.25
GCISVHHRLGLYSNESGLGL | < -0.25
SHRGNSVDVGTCRGVRLRRY | < -0.25
GWARTMHPHSC | < -0.25
CMVCSRVIWA | < -0.25
FLL | < -0.25
VMRALDPAEMSGHRSCNIED | < -0.25
WWCRLDASEHLQLGSG | < -0.25
MCSPTETVGAPPKSHVRSLP | < -0.25

Copied from the list.
Entry for CYPN under growth estimate: < -0.25
Entry for RSEGSQMQPRGV under growth estimate: < -0.25
Entry for EHLLMPFVGRELSKILLKCP under growth estimate: < -0.25
Entry for SHRGNSVDVGTCRGVRLRRY under growth estimate: < -0.25
Entry for QRDVMSRGNERKS under growth estimate: < -0.25

Next part:

Substance | growth estimate
LRSRPKSGLTYSGLTLKGAV | < -0.25
TKPSEGT | < -0.25
GLVRLMCRHVPVLWGVGNVL | < -0.25
LHPPSVARCCGVAITLQVVA | < -0.25
LEVSERM | < -0.25
YSQEIQGWIVVV | < -0.25
NPKCSVGFQTSCNHVKTT | < -0.25
AAIRCYLLSHAQL | -0.25
PYTCMTIASQSKGGPSLSLG | < -0.25
TMNRNSIERSEQP | < -0.25
IGYAPSCRPDYRGGETSGGT | < -0.25
GIGTHSSY | < -0.25
TSRWWSKGRESRSVSQRYQV | < -0.25
RRHNGLRNGLVAFLVRNASL | < -0.25
RKQFAD | < -0.25
IFSLVPRLIFRVVARSVRLV | < -0.25
PASSSTHIRLRPPRC | -0.231
ASREGAEIWLLGRCNLRRAD | < -0.25
GNHTVSCRAASGC | < -0.25
LNREYL | < -0.25
HRDWPPPE | < -0.25
GLLFRLVAGLGKLRCYDTYV | < -0.25
DVARSQQSWQGLSFVPKRLL | < -0.25
LGGPYLFIARDMGGAVAALR | < -0.25
VPIPIRDRMVAISLMRVLGM | < -0.25

Substance | growth estimate
VRISEAPFAIGWPKIGRASL | < -0.25
PELSIPVALVLRRHDLVR | < -0.25
VRTTVLIRNLTSPQNVARLR | < -0.25
FYRTAVPWSRKDLWRM | < -0.25
RSGVSDTYVSLV | < -0.25
PVGLIVRLA | < -0.25
YGLRLTILCRQLGVSGPVDG | < -0.25
LRNCRHSMGKLLPVVVPLDQ | -0.245
SPWAYYHLLSACHAWSIPHG | < -0.25
GRVVENVFKRYKGS | < -0.25
ETAS | < -0.25
CCRRYSLRVHRDQMS | < -0.25
QMISRSGPELVGRYRYRYVL | < -0.25
VVRTQDLKSIQQILRRNHTV | -0.243
KRQGSPR | < -0.25
AELNIVAFVKPITYAPTRGL | < -0.25
KNPDERKTEGTNSGSFQYRF | < -0.25
VSESEHQHPWSEIISPGRQL | < -0.25
LPGGDEGPIKEGSDCGPDRA | < -0.25
RACQQEELAAFIVRC | < -0.25
LGNGWN | < -0.25
SPSRTNGWFGPALRSIGLKL | < -0.25
